# Measured values from the supplement of paper PMC8728848.
# This is one part of the list.
# B1: XTP3-B-MRH2 (Homo sapiens), Q96DZ1 (protein)
# chain: EFLSGSYCFRGGVGWWKYEFCYGKHVHQYHEDKDSGKTSVVVGTWNQEEHIEWAKKNTARAYHLQDDGTQTVRMVSHFYGNGDICDITDKPRQVTVKLKCKESDSPHAVTVYMLEPHSCQYILGVESPVICKILDTA
# Experiments:
# Test in all cases: glycan array binding signal (z-score within array); higher = stronger binding
# Conditions in all cases: glycan notation: IUPAC condensed, linker removed
# [1] = target: Neu5Ac(a2-3)Gal(b1-4)GlcNAc(b1-3)[Neu5Ac(a2-3)Gal(b1-4)GlcNAc(b1-6)]GalNAc
# Summary of the method: (§1)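 Glycan array binding is given as a within-array Z-score, which can be read as non-binding when negative. The arrays, 3228 of them, came from the Consortium for Functional Glycomics database and were retained only where the protein sequence was available. Z-scores were averaged across arrays of the same protein sequence at different concentrations or buffers and across linkers.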
# [2] = target: Neu5Ac(a2-3)Gal(b1-4)GlcNAc(b1-6)GalNAc
# Summary of the method: as §1
# [3] = target: Neu5Ac(a2-3)Gal(b1-4)GlcNAc(b1-6)[Gal(b1-3)]GalNAc
# Summary of the method: as §1
# [4] = target: Neu5Ac(a2-3)Gal(b1-4)GlcNAc(b1-6)[Neu5Ac(a2-3)Gal(b1-3)]GalNAc
# Summary of the method: as §1
# [5] = target: Neu5Ac(a2-3)Gal(b1-4)GlcNAc6S
# Summary of the method: as §1
# [6] = target: Neu5Ac(a2-3)Gal(b1-4)[Fuc(a1-3)]GlcNAc
# Summary of the method: as §1
# [7] = target: Neu5Ac(a2-3)Gal(b1-4)[Fuc(a1-3)]GlcNAc(b1-2)Man
# Summary of the method: as §1
# [8] = target: Neu5Ac(a2-3)Gal(b1-4)[Fuc(a1-3)]GlcNAc(b1-3)Gal
# Summary of the method: as §1
# [9] = target: Neu5Ac(a2-3)Gal(b1-4)[Fuc(a1-3)]GlcNAc(b1-3)Gal(b1-4)GlcNAc
# Summary of the method: as §1
# [10] = target: Neu5Ac(a2-3)Gal(b1-4)[Fuc(a1-3)]GlcNAc(b1-3)Gal(b1-4)[Fuc(a1-3)]GlcNAc(b1-3)Gal(b1-4)[Fuc(a1-3)]GlcNAc
# Summary of the method: as §1
# [11] = target: Neu5Ac(a2-3)Gal(b1-4)[Fuc(a1-3)]GlcNAc(b1-3)GalNAc
# Summary of the method: as §1
# [12] = target: Neu5Ac(a2-3)Gal(b1-4)[Fuc(a1-3)]GlcNAc(b1-6)[Gal(b1-3)]GalNAc
# Summary of the method: as §1
# [13] = target: Neu5Ac(a2-3)Gal(b1-4)[Fuc(a1-3)]GlcNAc(b1-6)[Neu5Ac(a2-3)Gal(b1-3)]GalNAc
# Summary of the method: as §1
# [14] = target: Neu5Ac(a2-3)Gal(b1-4)[Fuc(a1-3)]GlcNAc6S
# Summary of the method: as §1
# [15] = target: Neu5Ac(a2-3)Gal6S(b1-4)GlcNAc
# Summary of the method: as §1
# [16] = target: Neu5Ac(a2-3)Gal6S(b1-4)[Fuc(a1-3)]GlcNAc
# Summary of the method: as §1
# Neu5Ac(a2-3)GalNAc = target: Neu5Ac(a2-3)GalNAc
# Summary of the method: as §1
# [17] = target: Neu5Ac(a2-3)GalNAc(b1-4)GlcNAc
# Summary of the method: as §1
# [18] = target: Neu5Ac(a2-3)[GalNAc(b1-4)]Gal(b1-4)Glc
# Summary of the method: as §1
# [19] = target: Neu5Ac(a2-3)[GalNAc(b1-4)]Gal(b1-4)GlcNAc
# Summary of the method: as §1
# [20] = target: Neu5Ac(a2-3)[GalNAc(b1-4)]Gal(b1-4)GlcNAc(b1-3)GalNAc
# Summary of the method: as §1
# [21] = target: Neu5Ac(a2-3)[Neu5Ac(a2-6)]GalNAc
# Summary of the method: as §1
# Neu5Ac(a2-6)Gal = target: Neu5Ac(a2-6)Gal
# Summary of the method: as §1
# [22] = target: Neu5Ac(a2-6)Gal(b1-3)GlcNAc(b1-3)[Gal(b1-4)GlcNAc(b1-6)]Gal(b1-4)Glc
# Summary of the method: as §1
# Neu5Ac(a2-6)Gal(b1-4)Glc = target: Neu5Ac(a2-6)Gal(b1-4)Glc
# Summary of the method: as §1
# [23] = target: Neu5Ac(a2-6)Gal(b1-4)GlcNAc
# Summary of the method: as §1
# [24] = target: Neu5Ac(a2-6)Gal(b1-4)GlcNAc(b1-2)Man
# Summary of the method: as §1
# [25] = target: Neu5Ac(a2-6)Gal(b1-4)GlcNAc(b1-2)Man(a1-3)Man(b1-4)GlcNAc(b1-4)GlcNAc
# Summary of the method: as §1
# [26] = target: Neu5Ac(a2-6)Gal(b1-4)GlcNAc(b1-2)Man(a1-3)[Gal(b1-4)GlcNAc(b1-2)Man(a1-6)]Man(b1-4)GlcNAc(b1-4)GlcNAc
# Summary of the method: as §1
# [27] = target: Neu5Ac(a2-6)Gal(b1-4)GlcNAc(b1-2)Man(a1-3)[GlcNAc(b1-2)Man(a1-6)]Man(b1-4)GlcNAc(b1-4)GlcNAc
# Summary of the method: as §1
# [28] = target: Neu5Ac(a2-6)Gal(b1-4)GlcNAc(b1-2)Man(a1-3)[GlcNAc(b1-4)][Neu5Ac(a2-6)Gal(b1-4)GlcNAc(b1-2)Man(a1-6)]Man(b1-4)GlcNAc(b1-4)GlcNAc
# Summary of the method: as §1
# [29] = target: Neu5Ac(a2-6)Gal(b1-4)GlcNAc(b1-2)Man(a1-3)[Man(a1-6)]Man(b1-4)GlcNAc(b1-4)GlcNAc
# Summary of the method: as §1
# [30] = target: Neu5Ac(a2-6)Gal(b1-4)GlcNAc(b1-2)Man(a1-3)[Neu5Ac(a2-3)Gal(b1-4)GlcNAc(b1-2)Man(a1-6)]Man(b1-4)GlcNAc(b1-4)GlcNAc
# Summary of the method: as §1
# [31] = target: Neu5Ac(a2-6)Gal(b1-4)GlcNAc(b1-2)Man(a1-3)[Neu5Ac(a2-6)Gal(b1-4)GlcNAc(b1-2)Man(a1-6)]Man(b1-4)GlcNAc(b1-4)GlcNAc
# Summary of the method: as §1
# [32] = target: Neu5Ac(a2-6)Gal(b1-4)GlcNAc(b1-2)Man(a1-3)[Neu5Ac(a2-6)Gal(b1-4)GlcNAc(b1-2)Man(a1-6)]Man(b1-4)GlcNAc(b1-4)[Fuc(a1-6)]GlcNAc
# Summary of the method: as §1
# [33] = target: Neu5Ac(a2-6)Gal(b1-4)GlcNAc(b1-2)Man(a1-6)Man(b1-4)GlcNAc(b1-4)GlcNAc
# Summary of the method: as §1
# [34] = target: Neu5Ac(a2-6)Gal(b1-4)GlcNAc(b1-2)Man(a1-6)[Gal(b1-4)GlcNAc(b1-2)Man(a1-3)]Man(b1-4)GlcNAc(b1-4)GlcNAc
# Summary of the method: as §1
# [35] = target: Neu5Ac(a2-6)Gal(b1-4)GlcNAc(b1-2)Man(a1-6)[GlcNAc(b1-2)Man(a1-3)]Man(b1-4)GlcNAc(b1-4)GlcNAc
# Summary of the method: as §1
# [36] = target: Neu5Ac(a2-6)Gal(b1-4)GlcNAc(b1-2)Man(a1-6)[Man(a1-3)]Man(b1-4)GlcNAc(b1-4)GlcNAc
# Summary of the method: as §1
# [37] = target: Neu5Ac(a2-6)Gal(b1-4)GlcNAc(b1-2)[Neu5Ac(a2-6)Gal(b1-4)GlcNAc(b1-4)]Man(a1-3)[GlcNAc(b1-4)][Neu5Ac(a2-6)Gal(b1-4)GlcNAc(b1-2)[Neu5Ac(a2-6)Gal(b1-4)GlcNAc(b1-6)]Man(a1-6)]Man(b1-4)GlcNAc(b1-4)GlcNAc
# Summary of the method: as §1
# [38] = target: Neu5Ac(a2-6)Gal(b1-4)GlcNAc(b1-2)[Neu5Ac(a2-6)Gal(b1-4)GlcNAc(b1-4)]Man(a1-3)[GlcNAc(b1-4)][Neu5Ac(a2-6)Gal(b1-4)GlcNAc(b1-4)Man(a1-6)]Man(b1-4)GlcNAc(b1-4)GlcNAc
# Summary of the method: as §1
# [39] = target: Neu5Ac(a2-6)Gal(b1-4)GlcNAc(b1-2)[Neu5Ac(a2-6)Gal(b1-4)GlcNAc(b1-6)]Man(a1-6)[Neu5Ac(a2-6)Gal(b1-4)GlcNAc(b1-2)Man(a1-3)][GlcNAc(b1-4)]Man(b1-4)GlcNAc(b1-4)GlcNAc
# Summary of the method: as §1
# [40] = target: Neu5Ac(a2-6)Gal(b1-4)GlcNAc(b1-3)Gal(b1-3)GlcNAc
# Summary of the method: as §1
# [41] = target: Neu5Ac(a2-6)Gal(b1-4)GlcNAc(b1-3)Gal(b1-4)GlcNAc
# Summary of the method: as §1
# [42] = target: Neu5Ac(a2-6)Gal(b1-4)GlcNAc(b1-3)Gal(b1-4)GlcNAc(b1-2)Man(a1-3)[Neu5Ac(a2-6)Gal(b1-4)GlcNAc(b1-3)Gal(b1-4)GlcNAc(b1-2)Man(a1-6)]GalNAc
# Summary of the method: as §1
binder,measurement,setting,value
B1,glycan array binding signal (z-score),[1],-1.1
same,glycan array binding signal (z-score),[2],-0.311
same,glycan array binding signal (z-score),[3],0.038
same,glycan array binding signal (z-score),[4],-0.781
same,glycan array binding signal (z-score),[5],-0.351
same,glycan array binding signal (z-score),[6],-0.945
same,glycan array binding signal (z-score),[7],-0.476
same,glycan array binding signal (z-score),[8],0.532
same,glycan array binding signal (z-score),[9],0.32
same,glycan array binding signal (z-score),[10],0.208
same,glycan array binding signal (z-score),[11],1.32
same,glycan array binding signal (z-score),[12],-0.994
same,glycan array binding signal (z-score),[13],0.723
same,glycan array binding signal (z-score),[14],0.713
same,glycan array binding signal (z-score),[15],0.885
same,glycan array binding signal (z-score),[16],-0.291
same,glycan array binding signal (z-score),Neu5Ac(a2-3)GalNAc,-0.267
same,glycan array binding signal (z-score),[17],-0.479
same,glycan array binding signal (z-score),[18],-1.24
same,glycan array binding signal (z-score),[19],-0.067
same,glycan array binding signal (z-score),[20],1.17
same,glycan array binding signal (z-score),[21],-0.852
same,glycan array binding signal (z-score),Neu5Ac(a2-6)Gal,-0.213
same,glycan array binding signal (z-score),[22],-0.406
same,glycan array binding signal (z-score),Neu5Ac(a2-6)Gal(b1-4)Glc,0.239
same,glycan array binding signal (z-score),[23],-1.02
same,glycan array binding signal (z-score),[24],0.067
same,glycan array binding signal (z-score),[25],-0.836
same,glycan array binding signal (z-score),[26],-0.47
same,glycan array binding signal (z-score),[27],-1.02
same,glycan array binding signal (z-score),[28],-1.13
same,glycan array binding signal (z-score),[29],-0.089
same,glycan array binding signal (z-score),[30],-0.101
same,glycan array binding signal (z-score),[31],-0.079
same,glycan array binding signal (z-score),[32],0.209
same,glycan array binding signal (z-score),[33],1.85
same,glycan array binding signal (z-score),[34],-0.687
same,glycan array binding signal (z-score),[35],-0.312
same,glycan array binding signal (z-score),[36],0.144
same,glycan array binding signal (z-score),[37],0.202
same,glycan array binding signal (z-score),[38],-0.488
same,glycan array binding signal (z-score),[39],0.579
same,glycan array binding signal (z-score),[40],-0.807
same,glycan array binding signal (z-score),[41],0.021
same,glycan array binding signal (z-score),[42],-0.17

# 2 consecutive records from above, quoted:
binder,measurement,setting,value
B1,glycan array binding signal (z-score),[12],-0.994
same,glycan array binding signal (z-score),[13],0.723
